Results taken from patent CN116355095A.
These are yes or no findings as the source states them, for the method shown. Some results given as binding are weak or reduced against the parent protein; the word gives no strength.

What was measured:
[1] = molecular target: 食蟹猴TIGIT-hFc (cynomolgus monkey; human); assay: ELISA on coated antigen
[2] = molecular target: 恒河猴TIGIT-mFc (rhesus monkey; mouse); assay: ELISA on coated RhTIGIT-mFc

B1: IF091 (鼠源单克隆抗体mab22) (antibody, V domains shown)
VH: EVKLVESGGGLVQPGGSLKLSCVASGFTFSSYTMSWVRQTPEKRLELVAEISSSGGSTYYPDTVKGRFTISRDNAKNTLFLQMNSLKSEDTAMYYCARPGLGAWFAYWGQGTLVTVSA
VL: DVLMTQTPLSLPVSLGDQASISCRSSQSIVHNSGNTYLEWYLQKPGQSPKLLIYKVSNRFSGVPDRFSGSGSGTDFTLKISRVEAEDLGIYYCFQFSHVPRTFGGGTKLEIK
- binding [1]: binds

B2: 嵌合抗体mab22c (antibody, human IgG1, kappa, V domains shown)
VH: B1 VH
VL: DVLMTQTPLSLPVSLGDQASISCRSSQSIVHNSGNTYLEWYLQKPGQSPKLLIYKVSNRFSGVPDRFSGSGSGTDFTLKISRVEAEDLGIYYCFQFSHVPRTFGGGTKLEIKR
- binding [2]: binds
